Laboratory results taken from article PMC10933290.
Results are given in words; binding and its absence hold for the method and conditions named. Binding seen in cells or lysates may run through a third protein. Some binding calls cover weakened binding; strength is not graded here.

Sequences of proteins named here, by UniProt entry; tags and fusion partners are left off.
UniProt P59941: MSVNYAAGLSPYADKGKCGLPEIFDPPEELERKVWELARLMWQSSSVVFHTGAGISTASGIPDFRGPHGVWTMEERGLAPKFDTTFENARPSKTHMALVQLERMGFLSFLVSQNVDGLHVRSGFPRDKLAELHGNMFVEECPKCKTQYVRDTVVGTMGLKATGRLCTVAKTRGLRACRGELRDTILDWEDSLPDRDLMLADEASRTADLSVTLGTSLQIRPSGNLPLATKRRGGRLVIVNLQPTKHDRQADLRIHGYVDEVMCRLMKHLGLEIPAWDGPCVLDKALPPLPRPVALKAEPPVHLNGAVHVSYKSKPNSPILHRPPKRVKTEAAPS
UniProt P53566: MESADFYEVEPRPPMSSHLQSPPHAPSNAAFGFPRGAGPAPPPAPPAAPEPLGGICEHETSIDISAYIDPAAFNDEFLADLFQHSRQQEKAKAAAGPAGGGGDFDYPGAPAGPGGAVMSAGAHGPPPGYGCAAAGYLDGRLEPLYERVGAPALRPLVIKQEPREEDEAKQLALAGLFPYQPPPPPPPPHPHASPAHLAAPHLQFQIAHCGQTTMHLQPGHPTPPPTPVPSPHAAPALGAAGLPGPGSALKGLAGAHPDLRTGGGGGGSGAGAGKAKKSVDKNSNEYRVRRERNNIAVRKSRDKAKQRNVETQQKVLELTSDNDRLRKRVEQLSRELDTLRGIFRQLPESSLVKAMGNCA

Molecular target: Sirt6-GFP (UniProt P59941)
Experiment: co-IP; lysates of 293T/17 cells expressing Sirt6-GFP and C/ebpα (induced 48 h); IP overnight at 4 °C with 2 μg antibody against Sirt6 or C/EBP alpha, protein A/G agarose beads, washed with 300 mM NaCl in lysis buffer; detected with antibodies of Sirt6 and C/ebpα

Substance: C/ebpα (from UniProt P53566 1-359)
- binding: binds
